Laboratory results: PubChem BioAssay AID602196 (INSERM, 2012)

Purpose: 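Knock-downs that protect lung cancer cells from cisplatin or sensitise them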
Cell system: human A549 lung cancer cells
Reagents: siRNA pair against human genes
Timing: 48 h transfection before cisplatin; time from cisplatin to read-out not stated
Conditions: cisplatin at a dose killing half of control-siRNA cells; exact dose and duration not given
Read-out: 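Cisplatin cell death as a shift from the 50% death seen with control siRNA; siRNAs toxic or growth-blocking alone scored 0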
Reading the numbers: two-siRNA summed score (-2 to +2): higher = both siRNAs protect from cisplatin killing; -2 means both sensitise; mean protection from cisplatin (shift in death): higher = protection from cisplatin killing
Rule for the call: 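Each siRNA scores 0 if harmful alone by LDH or WST-1, otherwise +1 if it reduces and -1 if it increases cisplatin killing; a gene is active when both siRNAs agree (sum +2 or -2)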
Meaning of the calls: active = both siRNAs shift cisplatin killing the same way; inactive = no consistent shift, or siRNA harmful alone
In all, the deposit lists about 23,000 reagents; below is a part drawn at random. Of all reagents, 455 (2%) got an active call. 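Active includes both protection and sensitisation; some change values fall well beyond the stated -50 to +50 range.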 Further read-outs or replicates are left out here. No sequences are given here. The record does not give: the amount of reagent.

no.	gene knocked down	two-siRNA summed score (-2 to +2)	mean protection from cisplatin (shift in death) (%)	call
1	CUL4B	0	-0.3	inactive
2	ICAM4	0	24.1	inactive
3	NACA	-2	-24.7	active
4	FER1L6-AS2	0	11.1	inactive
5	LOC338870	0	8.3	inactive
6	SLF2	1	12.8	inactive
7	TLE5	0	3.7	inactive
8	LOC402196	0	0	inactive
9	ARHGAP23	0	27.8	inactive
10	PNPLA6	1	20.1	inactive
11	ZNF479	0	19.2	inactive
12	C1orf115	0	-2.5	inactive
13	LOC401328	0	7.3	inactive
14	ZNF628	0	3.3	inactive
15	PRR5L	0	-3.4	inactive
16	LOC147710	0	-2.8	inactive
17	TACR1	0	6.6	inactive

The list goes on, starting with the last 4 of the part before.
no.	gene knocked down	two-siRNA summed score (-2 to +2)	mean protection from cisplatin (shift in death) (%)	call
14	ZNF628	0	3.3	inactive
15	PRR5L	0	-3.4	inactive
16	LOC147710	0	-2.8	inactive
17	TACR1	0	6.6	inactive
18	KCTD13	0	1.6	inactive
19	CFAP91	0	5.2	inactive
20	LINC00851	1	11.6	inactive
21	FBXW10B	-1	-9.8	inactive
22	R3HDM1	0	13.4	inactive
23	DDIAS	0	-1.8	inactive
24	GNB1L	0	1.3	inactive
25	EAPP	0	5.2	inactive
26	MOB3B	0	0.2	inactive
27	SLC52A2	0	-3.9	inactive
28	SEC24D	1	9.5	inactive
29	PKIG	1	12.6	inactive
30	LOC442009	0	21.3	inactive
31	LOC401720	0	3.6	inactive
32	TIPRL	0	2.3	inactive
33	LOC441095	0	1.4	inactive
34	MROH8	1	22.9	inactive
35	ARLN	1	9.5	inactive
36	OR5AS1	0	7.5	inactive
37	ITGA11	-1	-5.9	inactive
38	CLINT1	1	5.6	inactive
39	CES2	1	15.2	inactive
